Test results taken from article PMC7717961.
These are yes or no findings as the source states them, for the method shown. In cells and extracts the contact can be indirect. Some binding calls cover weakened binding; strength is not graded here. Where a sequence is shown, tags or fusion partners need not be part of it.

By UniProt entry, the sequences of proteins in these tests, tags left out. Where a name states a change or a piece, a line headed by the entry shows the natural chain unless it says otherwise. Chains listed by the source or under a name are the forms on record and can include a tag or linker.
UniProt P54105: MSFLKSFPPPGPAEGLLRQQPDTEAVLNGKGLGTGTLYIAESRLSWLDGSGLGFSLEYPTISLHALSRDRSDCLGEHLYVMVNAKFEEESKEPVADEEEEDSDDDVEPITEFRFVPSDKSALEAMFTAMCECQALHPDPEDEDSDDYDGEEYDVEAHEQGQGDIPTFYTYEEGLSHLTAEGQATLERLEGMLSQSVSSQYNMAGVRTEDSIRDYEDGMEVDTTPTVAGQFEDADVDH
ICln Ser67Ala-ECFP (P54105, form named): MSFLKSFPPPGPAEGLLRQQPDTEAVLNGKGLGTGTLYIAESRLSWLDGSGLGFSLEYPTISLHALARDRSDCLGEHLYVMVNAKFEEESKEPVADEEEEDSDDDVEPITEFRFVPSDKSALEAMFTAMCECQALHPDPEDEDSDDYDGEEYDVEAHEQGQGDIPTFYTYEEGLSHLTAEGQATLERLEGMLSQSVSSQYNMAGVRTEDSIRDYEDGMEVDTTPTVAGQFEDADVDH

How the values were obtained:
[1] = target: T1, EYFP-OGT (O-GlcNAc-transferase with EYFP at its N-terminus) (human) (UniProt O15294); test: FRET or BRET; acceptor photobleaching FRET in fixed HeLa cells transfected for 48 h; donor ECFP, acceptor EYFP; FRET efficiency determined within the bleaching ROIs; unstimulated cells; imaging in HBSS at room temperature
T1 sequence: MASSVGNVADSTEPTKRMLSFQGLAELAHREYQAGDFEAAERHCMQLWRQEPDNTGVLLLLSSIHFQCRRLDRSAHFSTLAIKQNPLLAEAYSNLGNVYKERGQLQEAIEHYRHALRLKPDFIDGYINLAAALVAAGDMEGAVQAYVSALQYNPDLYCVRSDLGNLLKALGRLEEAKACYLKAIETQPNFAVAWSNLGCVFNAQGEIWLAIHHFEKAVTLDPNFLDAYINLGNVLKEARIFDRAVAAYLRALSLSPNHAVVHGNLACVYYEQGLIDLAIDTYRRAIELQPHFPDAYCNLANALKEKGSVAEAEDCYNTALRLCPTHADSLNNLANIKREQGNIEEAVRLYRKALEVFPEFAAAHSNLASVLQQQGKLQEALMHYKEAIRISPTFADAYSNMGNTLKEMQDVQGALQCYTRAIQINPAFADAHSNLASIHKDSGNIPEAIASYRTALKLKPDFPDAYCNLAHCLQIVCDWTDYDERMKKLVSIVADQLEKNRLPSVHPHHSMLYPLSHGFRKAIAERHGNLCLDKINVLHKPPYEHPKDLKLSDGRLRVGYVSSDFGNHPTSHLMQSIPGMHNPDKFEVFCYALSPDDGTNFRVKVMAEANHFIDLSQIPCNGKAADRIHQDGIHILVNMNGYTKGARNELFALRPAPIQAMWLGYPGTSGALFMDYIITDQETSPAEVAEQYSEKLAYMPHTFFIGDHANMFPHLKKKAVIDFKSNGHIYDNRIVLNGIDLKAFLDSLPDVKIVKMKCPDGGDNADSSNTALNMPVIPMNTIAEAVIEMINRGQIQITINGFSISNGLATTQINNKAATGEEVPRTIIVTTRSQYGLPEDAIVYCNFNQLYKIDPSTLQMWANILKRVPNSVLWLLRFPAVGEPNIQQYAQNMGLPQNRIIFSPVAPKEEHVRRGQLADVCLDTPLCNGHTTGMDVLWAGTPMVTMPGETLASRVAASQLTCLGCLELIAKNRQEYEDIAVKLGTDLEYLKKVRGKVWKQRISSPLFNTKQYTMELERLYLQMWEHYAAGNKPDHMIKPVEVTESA

[2] = target: T2, EYFP-OGA (O-GlcNAcase with EYFP) (human) (UniProt O60502); test: as above
T2 sequence: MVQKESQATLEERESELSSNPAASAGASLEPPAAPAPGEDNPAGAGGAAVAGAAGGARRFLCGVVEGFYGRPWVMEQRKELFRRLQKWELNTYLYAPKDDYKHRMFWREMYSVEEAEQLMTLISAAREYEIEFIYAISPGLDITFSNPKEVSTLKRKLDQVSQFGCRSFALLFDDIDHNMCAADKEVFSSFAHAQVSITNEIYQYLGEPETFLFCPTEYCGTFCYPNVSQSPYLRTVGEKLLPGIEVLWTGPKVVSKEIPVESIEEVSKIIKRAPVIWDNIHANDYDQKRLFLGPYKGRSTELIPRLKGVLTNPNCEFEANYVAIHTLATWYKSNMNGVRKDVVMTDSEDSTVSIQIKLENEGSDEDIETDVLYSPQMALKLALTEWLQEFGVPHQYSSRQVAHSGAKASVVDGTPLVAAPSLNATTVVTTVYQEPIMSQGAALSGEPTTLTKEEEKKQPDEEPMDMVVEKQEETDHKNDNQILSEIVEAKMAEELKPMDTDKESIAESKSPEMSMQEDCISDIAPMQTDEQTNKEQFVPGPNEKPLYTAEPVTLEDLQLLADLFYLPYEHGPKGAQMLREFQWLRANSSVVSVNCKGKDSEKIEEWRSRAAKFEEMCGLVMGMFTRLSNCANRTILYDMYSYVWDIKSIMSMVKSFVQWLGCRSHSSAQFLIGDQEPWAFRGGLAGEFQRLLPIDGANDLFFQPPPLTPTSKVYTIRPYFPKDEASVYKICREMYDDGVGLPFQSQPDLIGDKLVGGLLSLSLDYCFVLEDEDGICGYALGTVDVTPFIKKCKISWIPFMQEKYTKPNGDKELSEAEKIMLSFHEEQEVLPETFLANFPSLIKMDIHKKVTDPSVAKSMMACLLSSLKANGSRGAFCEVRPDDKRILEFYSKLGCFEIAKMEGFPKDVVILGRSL

| binding [1] | binding [2] | Substance |
| --- | --- | --- |
| binds | – | ICln Ser67Ala-ECFP (from UniProt P54105 1-237) |
| binds | no binding | ICln-ECFP (wild-type ICln fused to enhanced cyan fluorescent protein) (from UniProt P54105 1-237) |
